Drawing on article PMC7819943, “Rice protein-binding microarrays: a tool to detect cis-acting elements near promoter regions in rice”, this text covers binding signal for 42 sequences.

The other results are listed elsewhere or left out.

For this assay, the target named is T1, OsSMF1 (Oryza sativa, UniProt Q6ZLB0 1-436).
T1 sequence: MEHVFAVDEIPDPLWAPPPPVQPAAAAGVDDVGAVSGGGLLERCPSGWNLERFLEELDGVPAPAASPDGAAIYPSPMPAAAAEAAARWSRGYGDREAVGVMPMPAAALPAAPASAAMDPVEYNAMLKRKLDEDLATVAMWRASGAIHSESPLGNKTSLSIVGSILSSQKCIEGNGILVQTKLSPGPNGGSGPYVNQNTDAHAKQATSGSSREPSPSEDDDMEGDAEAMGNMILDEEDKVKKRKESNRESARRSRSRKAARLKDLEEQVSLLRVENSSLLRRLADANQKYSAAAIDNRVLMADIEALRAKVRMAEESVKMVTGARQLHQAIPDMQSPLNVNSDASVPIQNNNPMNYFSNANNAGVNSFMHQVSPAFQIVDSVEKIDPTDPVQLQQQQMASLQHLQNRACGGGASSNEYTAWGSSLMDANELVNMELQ
The assay is described as follows: protein-binding microarray (RPBM); PBS, 2% BSA, 51.3 ng/ul salmon testes DNA, 50 uM zinc acetate, 200 nM TF, 25 C, 1 h; high values mean tight binding. Conditions: protein: recombinant; tags: N-terminal polyhistidine and DsRed monomer fusion (pET32a); chain copies: 2; label: CyDye5-dUTP incorporated in the synthesized complementary strand; 3' TTTTT single-stranded linker to array surface; dsDNA, one strand shown. In a few lines: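 Binding signal is reported as fluorescence intensity per feature (arbitrary units) from an Axon 4000B scanner. Incubation used 200 nM of each Ni–NTA-purified, N-terminally polyhistidine- and DsRed-fused transcription factor from E. coli BL21-CodonPlus on a double-stranded custom Agilent array for 1 h at 25 °C, with 50 µM zinc acetate in the buffer, followed by washing.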
With “TCGTCACCCCTAACCCTAGGCTGAGTCATCCTCTTATCCGCGGAGTCACCTAGTGCAG”, the binding signal was 20300 fluorescence intensity (a.u.).

Turning to “CGAACGGACAACGGCGCGGCTGACGCGGGTACAGGCGGTGCGGAGTCACCTAGTGCAG”, the binding signal is 4880 fluorescence intensity (a.u.).

As for “AGCGTGTCTTCGGAGAGGGTTATGTCAGCACTGGTGGAATCGGAGTCACCTAGTGCAG”, the binding signal is 6110 fluorescence intensity (a.u.).

In the case of “CTCGTCATCGCTACCCCTGGGCTCGTGGCCAGCGGCAATTCGGAGTCACCTAGTGCAG”, the binding signal was 3210 fluorescence intensity (a.u.).

Consider “GATTGACATTGAAGTGGTTGACTAAGCTAAGGTTTACCACCGGAGTCACCTAGTGCAG”, for which the binding signal is 3440 fluorescence intensity (a.u.).

With “GCTTCCACGTCTCCCTCCTTATCTGTGACCCACTCCGTCGCGGAGTCACCTAGTGCAG”, the binding signal is 5200 fluorescence intensity (a.u.).

For “TATTCTAGTAATGATGTTGACATGTCAGTTCCATGTCCCACGGAGTCACCTAGTGCAG”, the binding signal was 4410 fluorescence intensity (a.u.).

Take “AATAATCTTTACACGCGTGGCATATAGCATGTTCTTGCAACGGAGTCACCTAGTGCAG”: the binding signal was 5330 fluorescence intensity (a.u.).

Regarding “ATTTGGAGCGGTTTTGGATCCACGTGGCAGTCCAATCAGCCGGAGTCACCTAGTGCAG”, the binding signal was 12500 fluorescence intensity (a.u.).

“GGTTCCATGCCTCGCCGTTTATCTATCTAATTTACTAGCACGGAGTCACCTAGTGCAG”: the binding signal was 3170 fluorescence intensity (a.u.).

Turning to “TGTGTCACCGTCAGACCCGCCGTCCCTGACGTTGCACCTTCGGAGTCACCTAGTGCAG”, the binding signal was 7680 fluorescence intensity (a.u.).

Take “ACCGTGCTCCGGCGCGGGCACCGCGTGGCATAGGCGCATGCGGAGTCACCTAGTGCAG”: the binding signal was 4780 fluorescence intensity (a.u.).

As for “GCCATAGGCCTTACTCGCTGACTCAGCTGCATGGACCAAGCGGAGTCACCTAGTGCAG”, the binding signal is 11400 fluorescence intensity (a.u.).

“TTTGCTTTTGTGATTTCCTTGTGAGATTACAGAAGCGGCGCGGAGTCACCTAGTGCAG”: the binding signal is 4880 fluorescence intensity (a.u.).

Take “GTGGGTGGTGGCGGCGGCGGCGGCGGCGAGGGTTTCTGGGCGGAGTCACCTAGTGCAG”: the binding signal was 26000 fluorescence intensity (a.u.).

Turning to “CTGTTACTACGATTCTGGACAGCAAATAATGTCACATCCTCGGAGTCACCTAGTGCAG”, the binding signal is 3320 fluorescence intensity (a.u.).

Consider “GCAGGGTTGTGATGCTAGTTTGGTGAGTGCTCAATTTATGCGGAGTCACCTAGTGCAG”, for which the binding signal is 3400 fluorescence intensity (a.u.).

As to “AGATGGTGTGGACGTTGCCTCGTCACCCTCCCGCTCTGCACGGAGTCACCTAGTGCAG”, the binding signal was 11000 fluorescence intensity (a.u.).

In the case of “ACGGACCAAAGTGCCTCGTCAGAGATAACCTCATCTGTGACGGAGTCACCTAGTGCAG”, the binding signal was 5810 fluorescence intensity (a.u.).

With “GTAGCAAAGTTACGAGCGTGCAGTTACATCCTATCCGCTGCGGAGTCACCTAGTGCAG”, the binding signal is 4150 fluorescence intensity (a.u.).

For the sequence “TAGAATCTATATATTTAATGTCACGTAGCGTAAGGGTTTTCGGAGTCACCTAGTGCAG”, the binding signal is 3240 fluorescence intensity (a.u.).

As to “TCACGAATACGATGATTACGTAGCAAGTCGAGTACCAGAGCGGAGTCACCTAGTGCAG”, the binding signal is 3160 fluorescence intensity (a.u.).

For “ATTTTCTTACTCCTAAAACAAATGACACGTCACGCGTCACCGGAGTCACCTAGTGCAG”, the binding signal was 29100 fluorescence intensity (a.u.).

As to “GACACAAACTGACGTCGCCTTCATCGTCCTCCTCCTCCGCCGGAGTCACCTAGTGCAG”, the binding signal is 3570 fluorescence intensity (a.u.).

In the case of “CTTGCCCAGCCACTGGTGGGCCCACCGGCCACCTCATTTCCGGAGTCACCTAGTGCAG”, the binding signal is 3390 fluorescence intensity (a.u.).

Consider “GCGCCACCTATAAAACGCCCGCGCGCCCCGCGCCGCCTCCCGGAGTCACCTAGTGCAG”, for which the binding signal was 40300 fluorescence intensity (a.u.).

In the case of “CAAGTAATTAATCAACACATCAGCAGGCTAGCTCCTGTAACGGAGTCACCTAGTGCAG”, the binding signal is 3680 fluorescence intensity (a.u.).

For the sequence “AAATCCACATTCTCTGGTCCCACACCTGTCACCGTCCCATCGGAGTCACCTAGTGCAG”, the binding signal is 4080 fluorescence intensity (a.u.).

As for “GCATCCGCATCCGCATCCGGGCCAGCGACGCCGGCGGAAGCGGAGTCACCTAGTGCAG”, the binding signal was 29300 fluorescence intensity (a.u.).

Regarding “ATGTTTATTACTCTTAGTATCTCTTGTAGTTAAGTTATAGCGGAGTCACCTAGTGCAG”, the binding signal was 3180 fluorescence intensity (a.u.).

With “TTGTGTTTGTGTGTGTGTTTGTGCTGATTTGGGCATTGGTCGGAGTCACCTAGTGCAG”, the binding signal was 3400 fluorescence intensity (a.u.).

As to “TGGCATGGCCTCTCGCCGCGGCGCTTGACTCATCACGATTCGGAGTCACCTAGTGCAG”, the binding signal was 7300 fluorescence intensity (a.u.).

Turning to “TATTGTAACTCCACGTAGTGTTACAACCACAGTGACAGCTCGGAGTCACCTAGTGCAG”, the binding signal was 4030 fluorescence intensity (a.u.).

In the case of “ACGTTCCATCCACCACTGCCCTTTTGGGCAGCACGAACAACGGAGTCACCTAGTGCAG”, the binding signal was 3870 fluorescence intensity (a.u.).

For “GACGTTTAGGGTGAAAGAAATGATGTGGATTTCTTTTACTCGGAGTCACCTAGTGCAG”, the binding signal was 5840 fluorescence intensity (a.u.).

As for “GATGCGCGTGAGGAGGCAGTGAGGTGGATGGTGGAGGCGGCGGAGTCACCTAGTGCAG”, the binding signal is 4160 fluorescence intensity (a.u.).

As to “GGCCCATGCGACGCCACGCCAGGTCCCGCTCATCTCTTCACGGAGTCACCTAGTGCAG”, the binding signal was 4310 fluorescence intensity (a.u.).

Consider “AGAAATGTCATCGTACAAGTGCTTTTGTTCTAGAGTTACCCGGAGTCACCTAGTGCAG”, for which the binding signal is 3790 fluorescence intensity (a.u.).

With “CCTGTATACTACGCGTAGGCAATCATGCCGCGCCTGTACACGGAGTCACCTAGTGCAG”, the binding signal was 3430 fluorescence intensity (a.u.).

For the sequence “ACCCCTCGACAGCGAGGCGTTGCGTGTCCCATCTCACCCTCGGAGTCACCTAGTGCAG”, the binding signal is 5260 fluorescence intensity (a.u.).

“CTACATAAGGTGCCGAGGCAGTGACACCACCACCCCACCCCGGAGTCACCTAGTGCAG”: the binding signal was 3340 fluorescence intensity (a.u.).

Turning to “AAACGTTTCAAAGATATCATGCCAGGTCAGACACCCGAATCGGAGTCACCTAGTGCAG”, the binding signal is 10600 fluorescence intensity (a.u.).
